# Laboratory results from the supplement of paper PMC4604168 (melanoma cell lines).
# This is one part of the list. Many values rest on one well or one pass, so single values are uncertain.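 Imaging used 1,536-well plates; nuclei positive for cleaved PARP by antibody were divided by total DNA-stained nuclei to yield the apoptosis fraction. Doses for screening kept most cells viable, and cell lines differ markedly in resting and induced cleaved-PARP levels.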
# Legend:
# Experiment in all cases: cleaved PARP positive nuclei fraction relative to DMSO control; melanoma cells; higher = more apoptosis
# Conditions in all cases: library dose: low library concentration; 72 h
# WM115 = tested on: WM115
# WM1716 = tested on: WM1716
# WM1745 = tested on: WM1745
# WM3526 = tested on: WM3526
# WM3619 = tested on: WM3619
# WM451Lu = tested on: WM451Lu
SMILES,cleaved PARP positive nuclei fraction (WM115),cleaved PARP positive nuclei fraction (WM1716),cleaved PARP positive nuclei fraction (WM1745),cleaved PARP positive nuclei fraction (WM3526),cleaved PARP positive nuclei fraction (WM3619),cleaved PARP positive nuclei fraction (WM451Lu)
"Clc1ccc(Nc2nnc(Cc3ccncc3)c3ccccc23)cc1 [vatalanib] + O=C(Oc1ccc([N+](=O)[O-])cc1)N1CCC(C(O)(c2ccc3c(c2)OCO3)c2ccc3c(c2)OCO3)CC1 [JZL184] (first compound 2 µM, partner dose 1 µM)",152%,128%,107%,68.8%,114%,29.7%
"C[As](C)SC[C@H](NC(=O)CC[C@H](N)C(=O)O)C(=O)NCC(=O)O [Darinaparsin] + C/C(O)=C(\C#N)C(=O)Nc1cc(Br)ccc1Br [LFM-A13] (first compound 0.4 µM, partner dose 2 µM)",96.9%,93.5%,99.4%,71.9%,71.8%,145%
"NC(=O)Nc1cc(-c2cccc(F)c2)sc1C(=O)N[C@H]1CCCNC1 + O=C(Oc1ccc([N+](=O)[O-])cc1)N1CCC(C(O)(c2ccc3c(c2)OCO3)c2ccc3c(c2)OCO3)CC1 [JZL184] (first compound 0.02 µM, partner dose 1 µM)",125%,67.3%,95.8%,148%,104%,162%
"N.N.[Cl][Pt][Cl] [cisplatin] + CC(=O)c1c(C)c2cnc(Nc3ccc(N4CCNCC4)cn3)nc2n(C2CCCC2)c1=O [palbociclib] (first compound 1.6 µM, partner dose 0.04 µM)",98.7%,62.9%,90.2%,145%,103%,105%
"Cc1cc(SCc2sc(-c3ccc(C(F)(F)F)c(F)c3)nc2C)ccc1OCC(=O)O + c1cc(-c2cnn3cc(-c4ccc(OCCN5CCCCC5)cc4)cnc23)ccn1 [Dorsomorphin] (first compound 2 µM, partner dose 0.4 µM)",146%,63.2%,125%,81.4%,110%,54.5%
"N.N.[Cl][Pt][Cl] [cisplatin] + CNC(=O)c1cc(Oc2ccc(NC(=O)Nc3ccc(Cl)c(C(F)(F)F)c3)cc2)ccn1 [sorafenib] (first compound 1.6 µM, partner dose 0.4 µM)",136%,38%,95.3%,84.1%,105%,138%
"COc1cc([C@@H]2c3cc4c(cc3[C@@H](O[C@@H]3O[C@@H]5CO[C@@H](C)O[C@H]5[C@H](O)[C@H]3O)[C@H]3COC(=O)[C@H]23)OCO4)cc(OC)c1O [etoposide] + Cc1cc(SCc2sc(-c3ccc(C(F)(F)F)c(F)c3)nc2C)ccc1OCC(=O)O [GW0742] (first compound 0.02 µM, partner dose 2 µM)",83.7%,–,95.7%,130%,–,117%
"Cn1cc(C2=C(c3cn(C4CCN(Cc5ccccn5)CC4)c4ccccc34)C(=O)NC2=O)c2ccccc21 [Enzastaurin] + C/C(O)=C(\C#N)C(=O)Nc1cc(Br)ccc1Br [LFM-A13] (first compound 0.8 µM, partner dose 2 µM)",78.3%,85.7%,224%,40.9%,101%,102%
"COc1cc(Nc2ncc(F)c(Nc3ccc4c(n3)NC(=O)C(C)(C)O4)n2)cc(OC)c1OC [Tamatinib] + O=C(Oc1ccc([N+](=O)[O-])cc1)N1CCC(C(O)(c2ccc3c(c2)OCO3)c2ccc3c(c2)OCO3)CC1 [JZL184] (first compound 0.4 µM, partner dose 1 µM)",175%,66.3%,137%,77.6%,86%,71.9%
"C[As](C)SC[C@H](NC(=O)CC[C@H](N)C(=O)O)C(=O)NCC(=O)O [Darinaparsin] + O=C(Nc1ccccc1)c1cc([N+](=O)[O-])ccc1Cl [GW9662] (first compound 0.4 µM, partner dose 2 µM)",98.6%,70%,86.6%,27.8%,106%,60.8%
"CCCCCCCCCCCCCCCCCCOP(=O)([O-])OC1CC[N+](C)(C)CC1 [Perifosine] + C/C(O)=C(\C#N)C(=O)Nc1cc(Br)ccc1Br [LFM-A13] (first compound 0.4 µM, partner dose 2 µM)",92.9%,48.6%,92.2%,90.9%,82.7%,117%
"O=c1[nH]nc(Sc2ncc([N+](=O)[O-])s2)n1-c1ccc2c(c1)OCCO2 + N.N.[Cl][Pt][Cl] [cisplatin] (first compound 0.2 µM, partner dose 1.6 µM)",99.5%,131%,102%,223%,75.2%,103%
